Laboratory results taken from PubChem BioAssay AID504444 (National Center for Advancing Translational Sciences (NCATS), 2011).
Out of some 360,000 compounds screened, about 7,500 (2.1%) were called active. Inconclusive means that the source gave no clear call. Such entries were picked first, then a sample of the others. Calls come from the whole dose curve; as a rule, active = well fitted inhibition curve with a large enough effect; inconclusive = small, poorly fitted or top-dose-only effect, or effect the other way; inactive = flat fitted curve, though single readings scatter. Where the call is inconclusive, the potency comes from a doubtful curve fit.
% is set by controls: 0 for no effect and ±100 for the full control effect; potency is the fitted concentration of half-maximal effect.

Test: Nrf2 qHTS screen for inhibitors; note: nearly all actives have a fitted effect of over 60% in size
Conditions: A549 ARE-Fluc reporter, luciferase luminescence, 18-24 h; activity change, negative = inhibition: at 46 µM (top of the series)
In short: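 A549 ARE_Fluc cells, 5000/well, 5% FBS OPTI-MEM; compounds in dose-response, 18-24 h at 37 °C/5% CO2; CellTiter-Fluor viability read (Ex 405/Em 525), then BugLite luciferase luminescence = Nrf2 activity.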
For `Cc1nc(CSc2nnc3scc(-c4ccc(Cl)cc4)n23)cs1`, the Potency was inconclusive: 29.1 µM [falling, single point].
In the case of `CCOC(=O)N1CCc2c(sc3c2c(=O)n(Cc2ccccc2)c(=O)n3CC(=O)Nc2cccc(C)c2)C1`, the Potency is reported as inconclusive: 8.2 µM [falling, partial curve, poor fit].
With `Cc1cc(C(=O)COC(=O)c2n[nH]c3ccccc23)c(C)n1CC1CCCO1` (stereo not given) the Potency was inconclusive: 2.06 µM [activator, full curve].
In the case of `Cc1ccc2c(COC(=O)C3=COCCO3)cc(=O)oc2c1`, the Potency is reported as inconclusive: 2.91 µM [activator, full curve].
In the case of `COc1ccc(Cc2nc3ccc(C(=O)NC(C)c4cn(C)nc4C)cc3o2)cc1` (stereo not given), the Potency is reported as inconclusive: 29.1 µM [falling, single point].
In the case of `Cc1cc(C)c(NC(=O)CSc2ccc3nnc(CCNC(=O)c4ccccc4)n3n2)c(C)c1`, the “activity change, negative = inhibition” value is reported as inactive: 2.43%.
In the case of `O=P(c1ccccc1)(c1ccccc1)C(c1ccco1)N1CCOCC1` (stereo not given), the Potency is reported as inconclusive: 3.26 µM [falling, single point].
For `Cc1ccc(OCCn2c(=O)n(C)c3ccccc32)cc1`, the Potency was inconclusive: 6.51 µM [activator, full curve].
With `CCn1c(NCc2ccccc2Cl)nc2ccccc21` the Potency was inconclusive: 18.4 µM [activator, partial curve, poor fit].
With `COc1ccc(C2CC(c3ccccc3)=NN2C(=O)c2cccs2)cc1` (stereo not given) the Potency was inconclusive: 25.9 µM [falling, single point].
For `Cc1ccc(S(=O)(=O)N2CCC(C(=O)Nc3ccccc3N3CCCCC3)CC2)cc1C`, the Potency was inconclusive: 11.6 µM [falling, partial curve].
With `Cc1nc(NC(=O)CCl)sc1C(=O)N(C)C` the “activity change, negative = inhibition” value was inactive: -20.9%.
For `COc1cccc(C(=O)Nc2nnc(-c3ccc(F)cc3)o2)c1`, the Potency was inconclusive: 23.1 µM [falling, partial curve].
For `COC(=O)c1cc(NC(=O)c2ccc(-c3ccccc3)cc2)ccc1Cl`, the Potency was inconclusive: 6.51 µM [falling, partial curve].
For `Cc1ccc(C)c(NC(=O)CCN2CCN(CCO)CC2)c1`, the Potency was inconclusive: 0.0041 µM [falling, full curve, poor fit].
In the case of `CCOC(=O)N1CCN(c2nc(-c3ccc(OC)cc3)no2)CC1`, the Potency is reported as inconclusive: 16.4 µM [falling, single point].
In the case of `CC(C)C[C@@H](C(=O)NC1CCN(Cc2ccccc2)CC1)N1C(=O)N2CCc3c([nH]c4ccccc34)[C@@]2(C)C1=O`, the “activity change, negative = inhibition” value is reported as inactive: -20.7%.
In the case of `CC(=O)NCCCN(Cc1ccc(Cl)c(Cl)c1)c1ccc(Br)cn1`, the Potency is reported as inconclusive: 29.1 µM [falling, single point].
For `COc1ccc2c(c1)[nH]c1c(=O)n(CCCN3CCOCC3)cnc12`, the Potency was inconclusive: 6.51 µM [activator, single point].
For `O=C(N/N=C/c1cccc([N+](=O)[O-])c1)c1ccc2c(c1)OCCO2`, the Potency was inconclusive: 0.116 µM [activator, full curve].
In the case of `COc1ccccc1N(C)S(=O)(=O)c1ccc(Cl)c(C(=O)N2CCC(C(N)=O)CC2)c1`, the Potency is reported as inconclusive: 2.31 µM [falling, partial curve].
In the case of `CNC(=O)C1CCC(Cn2c(=O)c3sccc3n(CC(=O)NCc3ccc(C)cc3)c2=O)CC1` (stereo not given), the Potency is reported as inconclusive: 29.1 µM [activator, single point].
In the case of `Cc1ccc(C)c(NC(=O)CS(=O)(=O)c2c[nH]c3ccccc23)c1`, the Potency is reported as inconclusive: 13 µM [falling, partial curve, poor fit].
For `O=C(COc1ccc(Cl)cc1Br)NC(=O)NCc1ccccc1`, the Potency was inconclusive: 29.1 µM [activator, single point].
For `CCOC(=O)c1ccc(N2C(=O)c3n[nH]c(C)c3C2c2ccccc2)cc1` (stereo not given), the Potency was inconclusive: 32.6 µM [falling, partial curve, poor fit].
In the case of `Cc1ccc2c(c1)C(N1CCCC1=O)CC(c1ccco1)N2` (stereo not given), the Potency is reported as inconclusive: 4.11 µM [activator, partial curve, poor fit].
With `CCOC(=O)c1c(C)[nH]c(C)c1C(=O)COC(=O)c1cccc(S(=O)(=O)N(CC)CC)c1` the Potency was inconclusive: 18.4 µM [falling, partial curve].
For `Cn1c(=O)oc2cc(S(=O)(=O)N3CCCC(C(=O)NCc4ccccc4Cl)C3)ccc21` (stereo not given), the “activity change, negative = inhibition” value was inactive: 0.595%.
With `CCN1C(=O)[C@H]2[C@@H](c3ccc(-c4ccc(Cl)c(Cl)c4)c(OC)c3)N3CCCC[C@@]3(C(=O)OC)[C@H]2C1=O` the Potency was inconclusive: 29.1 µM [falling, single point].
For `COc1ccc(NC(=O)Cn2c(=O)oc3cc(Cl)ccc32)c(OC)c1`, the Potency was inconclusive: 29.1 µM [falling, single point].
In the case of `C=C(C)C1CC=C(C)/C(=N/NC(=O)c2cccs2)C1` (stereo not given), the “activity change, negative = inhibition” value is reported as inactive: 12.8%.
For `Nc1ccc(N2CCOCC2)c2nonc12`, the “activity change, negative = inhibition” value was inactive: -11.7%.
With `Cc1cc([N+](=O)[O-])ccc1-c1ccc(C2Nc3ccccc3C(=O)N2O)o1` (stereo not given) the Potency was inconclusive: 16.4 µM [falling, single point].
For `Cc1c(CCC(=O)O)c(=O)oc2c(C)c(OCc3ccccc3Cl)ccc12`, the Potency was inconclusive: 11.6 µM [falling, partial curve, poor fit].
For `CCN(CC(=O)NCc1cccs1)C(=O)/C=C/c1cc(OC)c(OC)c(OC)c1`, the “activity change, negative = inhibition” value was inactive: -8.96%.
In the case of `COc1ccc(CCNC(=O)c2cc(-c3cc(C)cc(C)c3O)n[nH]2)cc1OC`, the Potency is reported as inconclusive: 13 µM [falling, partial curve, poor fit].
In the case of `COc1ccc(OC)c(C2=NS(=O)(=O)N(C)C(C(=O)Nc3ccc(C(C)=O)cc3)=C2)c1`, the Potency is reported as inconclusive: 29.1 µM [falling, single point].
For `Cc1ccc(C)c(NC(=O)C2CCN(c3ncnc4c3nc3n4CCCCC3)CC2)c1`, the Potency was inconclusive: 29.1 µM [activator, single point].
For `CCc1c(C)nc(SCC(=O)NC2CCCC2)[nH]c1=O`, the Potency was inconclusive: 29.1 µM [activator, single point].
With `CN(C(=O)Nc1ccccc1)C1CCCc2ccccc21` (stereo not given) the Potency was inconclusive: 32.6 µM [activator, single point].
